In PubChem BioAssay AID504847 (National Center for Advancing Translational Sciences (NCATS), 2011):
Values joined by “and” are separate entries in the source; they are usually repeats but may differ in a detail not shown here. Equal entries are not always repeated. Out of some 400,000 compounds screened, about 3,700 (0.93%) were called active. Inconclusive results, whose numbers are uncertain, are shown with a selection of clear calls. The call rests on the fitted dose curve; in most records, active means well fitted inhibition curve with a large enough effect; inconclusive means small, poorly fitted or top-dose-only effect, or another doubt; inactive means no such curve, though single readings can be large or run the other way. Where the call is inconclusive, the potency comes from a doubtful curve fit.

Chains of the proteins cited; added tags and fusions are not shown. Lines headed by an entry give the natural chain unless they say otherwise; changes in a name come on top.
UniProt P11473: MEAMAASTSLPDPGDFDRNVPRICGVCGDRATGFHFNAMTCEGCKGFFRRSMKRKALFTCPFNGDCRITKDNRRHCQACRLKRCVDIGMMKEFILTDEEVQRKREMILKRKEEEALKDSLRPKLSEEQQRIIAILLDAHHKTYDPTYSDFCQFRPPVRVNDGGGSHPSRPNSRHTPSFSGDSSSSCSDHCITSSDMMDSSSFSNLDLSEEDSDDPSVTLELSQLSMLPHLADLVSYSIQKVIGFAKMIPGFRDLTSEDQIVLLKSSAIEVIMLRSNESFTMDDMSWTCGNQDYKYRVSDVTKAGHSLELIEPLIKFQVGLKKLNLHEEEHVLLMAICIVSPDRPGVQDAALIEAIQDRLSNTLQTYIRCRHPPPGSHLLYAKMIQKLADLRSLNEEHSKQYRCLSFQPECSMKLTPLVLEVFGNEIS

Target: Vitamin D3 receptor (Homo sapiens) (UniProt P11473)
Experiment: Inhibitors of the vitamin D receptor (VDR): qHTS
Conditions: VDR-SRC2-3 peptide fluorescence polarization, 2 h; max response, negative = inhibition: stronger effect = lower value
Outline: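 FP read-out; VDR + SRC2-3 coactivator peptide; 23 nl compound by pintool; 2 h RT incubation; reagents held at 4 deg C, protected from light.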
On the % scale 0 is the no-effect control and ±100 the full control effect; potency means the concentration at half of the fitted maximal effect.

SMILES | max response, negative = inhibition | Potency
COc1ccc(NC(=O)Cn2nnc3sc4c(c3c2=O)CCCC4)cc1 | inactive: -15.2% | –
O=[N+]([O-])c1ccc(C(=S)N2CCN(c3ccc(F)cc3)CC2)cc1 | – | active: 79.4 µM
CC1CCc2sc(-c3n[nH]c(=S)o3)cc2C1 (stereo not given) | – | inconclusive: 89.1 µM [inhibitor, single point]
CC(=O)c1ccc(NC(=O)Cn2c(=O)nc(-c3ccccc3)c3cc(Cl)ccc32)cc1 | inactive: -0.861% | –
CCC(C)NC(=O)CSc1nc2cc3c(cc2c(=O)n1Cc1ccc(C(=O)NCCc2ccc(OC)c(OC)c2)cc1)OCO3 (stereo not given) | – | inconclusive: 39.8 µM [inhibitor, single point]
Cc1ccc(CN2CCC(CNS(=O)(=O)c3ccc(-c4ccc(=O)[nH]n4)s3)CC2)cc1 | – | inconclusive: 39.8 µM [inhibitor, single point]
CC(C)/C=N/NC(=O)c1ccc(Cl)cc1 | – | inconclusive: 28.2 µM [inhibitor, single point]
COc1ccc(CN/C(C)=C(/C#N)C(N)=O)cc1OC | – | inconclusive: 89.1 µM [inhibitor, single point]
Cn1c(N)c(C(=O)NCc2ccccc2Cl)sc1=S | – | inconclusive: 3.55 µM [inhibitor, partial curve, poor fit]
C=CCNC(=S)NNc1nc(N2CCCC2)nc(N2CCCC2)n1 | – | inconclusive: 35.5 µM [inhibitor, full curve, poor fit]
COc1cccc(C2=NS(=O)(=O)N(C)C(C(=O)Nc3ccccc3SC)=C2)c1 | inactive: -8.05% | –
Cc1ccc(C)c(Cn2c(=O)n(Cc3ccccc3)c(=O)c3c2c2cc(C)ccc2n3C)c1 | inactive: 5.3% | –
O=C1OC(/C=C/c2ccccc2)=NC/1=C/c1ccco1 | – | inconclusive: 79.4 µM [inhibitor, partial curve, poor fit]
O=C(O)c1ccc(COc2ccccc2C=C2C(=O)c3ccccc3C2=O)cc1 | – | inconclusive: 50.1 µM [inhibitor, partial curve, poor fit]
CCCCCCCCCc1ccc(OCCOCCOCCOCCOCCOCCOCCOCCOCCO)cc1 | inactive: 1.96% | –
Cc1ccccc1NC(=O)CNc1ccccc1C(=O)NCc1ccco1 | inactive: -6.42% | –
CC(C)c1ccc2oc3nc(N)c(C(=O)O)cc3c(=O)c2c1 | – | inconclusive: 39.8 µM [inhibitor, partial curve]
NC(=O)c1cc[n+](CC2=C(C(=O)O)N3C(=O)[C@@H](NC(=O)[C@@H](c4ccccc4)S(=O)(=O)[O-])[C@H]3SC2)cc1 | – | inconclusive: 70.8 µM [inhibitor, partial curve]
O=c1oc2cc(OCc3nn[nH]n3)ccc2c2c1CCCC2 | inactive: -6.46% | –
Oc1c(C=Nc2cccc3nsnc23)ccc2ccccc12 | – | active: 79.4 µM
Cc1ccc(/C([O-])=C(/C(=S)Nc2ccc(SC(F)F)cc2)[n+]2ccccc2)cc1[N+](=O)[O-] | – | inconclusive: 89.1 µM [inhibitor, single point]
O=C(CSc1ccc(Br)cc1)Nc1cccc(S(=O)(=O)N2CCOCC2)c1 | – | inconclusive: 56.2 µM [inhibitor, partial curve, poor fit]

3 of the compounds above, as labelled records.
COc1ccc(CN/C(C)=C(/C#N)C(N)=O)cc1OC
  Potency: inconclusive: 89.1 µM [inhibitor, single point]
Cn1c(N)c(C(=O)NCc2ccccc2Cl)sc1=S
  Potency: inconclusive: 3.55 µM [inhibitor, partial curve, poor fit]
C=CCNC(=S)NNc1nc(N2CCCC2)nc(N2CCCC2)n1
  Potency: inconclusive: 35.5 µM [inhibitor, full curve, poor fit]

Continuation.

SMILES | max response, negative = inhibition | Potency
CCNC(=O)CSc1nnc(-c2cccc(S(=O)(=O)N(CC)CC)c2)n1CCc1ccccc1 | – | inconclusive: 20 µM [inhibitor, full curve, poor fit]
CSc1cc(-c2ccc(Cl)cc2)c(C(=O)NN)s1 | – | inconclusive: 79.4 µM [inhibitor, partial curve, poor fit]
N/C(=N\O)c1ccccc1N1CCCCC1 | inactive: 9.12% | –
COc1ccc(C(O)P(=O)(OCC(C)C)c2ccc(N(C)C)cc2)c(OC)c1 (stereo not given) | inactive: -1.6% | –
N/C(=N\N=C\c1ccc(Cl)cc1)N/N=C/c1ccc(Cl)cc1 | – | inconclusive: 89.1 µM [inhibitor, partial curve, poor fit]
C=CCn1cnc2c(nnn2-c2ccc(C)c(Cl)c2)c1=O | – | inconclusive: 50.1 µM [inhibitor, partial curve, poor fit]
NS(=O)(=O)c1ccc(NC2=CC(=O)C(=O)c3ccccc32)cc1 | – | inconclusive: 28.2 µM [inhibitor, partial curve, poor fit]
CC(=O)N1CCN(C(=O)CCCNC(=O)c2ccc(Cl)cc2)CC1 | inactive: 4.01% | –
COc1ccc2c(c1)C(=O)[C@H](OC(=O)NCc1ccco1)[C@@H](c1ccc(OC)c(Br)c1)O2 | – | active: 56.2 µM
CNc1c(NS(=O)(=O)c2ccc(OC)c(Cl)c2)c(=O)oc2ccccc12 | inactive: 1.24% | –
CC(=O)NC(CSC(CC(=O)c1ccco1)c1ccc(C)cc1)C(=O)O (stereo not given) | – | inconclusive: 63.1 µM [inhibitor, partial curve, poor fit]
COc1ccc(/C=N/NC(=S)Nc2cc(S(=O)(=O)N3CCOCC3)ccc2N2CCOCC2)cc1O | – | inconclusive: 100 µM [inhibitor, single point]
CC1=NN(c2nc(-c3ccc(C)cc3)cs2)C(=O)C1N=Nc1cccc(C)c1 (stereo not given) | inactive: -13.6% | –
Cc1ccnc(NC2c3ccccc3C(=O)N2Cc2ccccc2Cl)c1 (stereo not given) | inactive: -1.95% | –
Oc1cccc(C(=S)N2CCC(Cc3ccccc3)CC2)c1 | – | inconclusive: 89.1 µM [inhibitor, single point]
CC(=O)Nc1ccc(NC(=O)c2ccccc2N(C)S(=O)(=O)c2ccccc2)cc1 | – | inconclusive: 89.1 µM [inhibitor, single point]
CCOC(=O)Cn1cnc2c(cnn2-c2ccc(C)c(C)c2)c1=O | inactive: 15.4% | –
COc1ccc(NC(=O)c2nc(S(=O)(=O)Cc3ccc(C)cc3)ncc2Cl)cc1 | – | inconclusive: 28.2 µM [inhibitor, partial curve, poor fit]
O=C(Nc1ccc2nc(-c3ccco3)c(-c3ccco3)nc2c1)NC1CC1 | – | active: 70.8 µM
COc1ccc(C(=S)N2CCN(c3cccc(Cl)c3)CC2)c(OC)c1 | – | inconclusive: 79.4 µM [inhibitor, single point]
CCOc1ccc(-c2csc(/C(C#N)=C\c3ccc(O)c([N+](=O)[O-])c3)n2)cc1 | inactive: -1.75% | –
COc1ccc(C2CC(c3ccccc3)=NN2C(=S)Nc2ccccc2)cc1 (stereo not given) | – | inconclusive: 89.1 µM [inhibitor, single point]

SMILES | max response, negative = inhibition | Potency
COCCn1c(=O)c(-c2cccc(C#N)c2)nc2cnc(OCc3ccccc3)nc21 | inactive: -23% | –
Cc1ccc(S(=O)(=O)N2CCN(C(=O)CC(C)C)CC2)cc1 | – | inconclusive: 100 µM [inhibitor, single point]
C#CCOc1ccc(/C=C2/C(=O)NN(c3ccc(F)cc3)C2=O)cc1OC | inactive: -18.5% | –
COc1ccc(C(=O)CCN2CCC(C)CC2)cc1 | – | active: 79.4 µM
CCOC(=O)c1c(N)sc2c1CCN(Cc1ccccc1)C2 | – | active: 39.8 µM
C[C@]12c3[nH]c4ccccc4c3CCN1C(=O)C(CC(=O)NCCN1CCOCC1)C[C@@H]2C(=O)N1CCCCC1 (stereo not given in full) | – | inconclusive: 79.4 µM [inhibitor, partial curve, poor fit]
CCOC(=O)c1c2c(n(-c3ccc(OC)cc3)c1C)C(=O)C(=O)c1ccccc1-2 | – | active: 17.8 µM
N#C/C(=C\c1cccnc1)C(=O)Nc1ccc(SC(F)F)cc1 | – | inconclusive: 56.2 µM [inhibitor, partial curve, poor fit]
O=C(Nc1nc(=O)n(C(=O)C2CC2)s1)c1ccccc1 | – | active: 50.1 µM
O=C1C=CC(=O)N1c1ccc(Nc2ccccc2)cc1 | – | inconclusive: 79.4 µM [inhibitor, single point]
Cc1ccc(-c2nc3ccccc3[nH]2)cc1NC(=O)c1ccc2c(c1)OCO2 | inactive: -2.25% | –
c1ccc(N2CCN(c3nc4cc5c(cc4s3)OCO5)CC2)cc1 | – | inconclusive: 89.1 µM [inhibitor, partial curve]
Cc1cc(C)n(CC(=O)N2CCCC(N3CCN(Cc4ccc5c(c4)OCO5)CC3)C2)n1 (stereo not given) | inactive: 1.82% | –
O=C(O)c1cccnc1Nc1cccc(C(F)(F)F)c1 | – | inconclusive: 50.1 µM [inhibitor, partial curve, poor fit] and inconclusive: 31.6 µM [inhibitor, partial curve] and inconclusive: 89.1 µM [inhibitor, partial curve]
O=[N+]([O-])c1ccc(C[n+]2cccc3ccc4cccnc4c32)cc1 | – | active: 79.4 µM
CC(C)C[C@@H](CNCC(=O)[C@H](Cc1ccccc1)NC(=O)c1[nH]cnc1C(=O)N[C@H](CN)CC(C)C)NC(=O)c1nc[nH]c1C(=O)N[C@@H](CC(=O)O)C(=O)O | – | inconclusive: 79.4 µM [inhibitor, partial curve]
O=S(=O)(NC1CCSc2ccccc21)c1ccc(Cl)nc1 (stereo not given) | inactive: -12.9% | –
COCC(=O)N1CCC2(CCCN(c3ccccc3)C2)CC1 | – | inconclusive: 39.8 µM [inhibitor, full curve]
COc1cccc(COCCN2CCN(S(=O)(=O)c3ccc(C)cc3)CCC2=O)c1 | – | inconclusive: 56.2 µM [inhibitor, partial curve, poor fit]
CC1CC(OC(=O)C(O)c2ccccc2)CC(C)(C)C1 (stereo not given) | – | inconclusive: 89.1 µM [inhibitor, partial curve, poor fit]
COc1cc(C2CC(=O)c3cnc(NC(=O)c4ccco4)nc3C2)cc(OC)c1OC (stereo not given) | – | inconclusive: 89.1 µM [inhibitor, partial curve, poor fit]
